Reference: article PMC6625793, “The autophagic membrane tether ATG2A transfers lipids between membranes” (eLife, 2019)
These are yes or no findings as the source states them, for the method shown. Some binding calls cover weakened binding; strength is not graded here. Sequences can lack the tags named with a protein.

Sequences of proteins named here, by UniProt entry; tags and fusion partners are left off.
UniProt Q2TAZ0: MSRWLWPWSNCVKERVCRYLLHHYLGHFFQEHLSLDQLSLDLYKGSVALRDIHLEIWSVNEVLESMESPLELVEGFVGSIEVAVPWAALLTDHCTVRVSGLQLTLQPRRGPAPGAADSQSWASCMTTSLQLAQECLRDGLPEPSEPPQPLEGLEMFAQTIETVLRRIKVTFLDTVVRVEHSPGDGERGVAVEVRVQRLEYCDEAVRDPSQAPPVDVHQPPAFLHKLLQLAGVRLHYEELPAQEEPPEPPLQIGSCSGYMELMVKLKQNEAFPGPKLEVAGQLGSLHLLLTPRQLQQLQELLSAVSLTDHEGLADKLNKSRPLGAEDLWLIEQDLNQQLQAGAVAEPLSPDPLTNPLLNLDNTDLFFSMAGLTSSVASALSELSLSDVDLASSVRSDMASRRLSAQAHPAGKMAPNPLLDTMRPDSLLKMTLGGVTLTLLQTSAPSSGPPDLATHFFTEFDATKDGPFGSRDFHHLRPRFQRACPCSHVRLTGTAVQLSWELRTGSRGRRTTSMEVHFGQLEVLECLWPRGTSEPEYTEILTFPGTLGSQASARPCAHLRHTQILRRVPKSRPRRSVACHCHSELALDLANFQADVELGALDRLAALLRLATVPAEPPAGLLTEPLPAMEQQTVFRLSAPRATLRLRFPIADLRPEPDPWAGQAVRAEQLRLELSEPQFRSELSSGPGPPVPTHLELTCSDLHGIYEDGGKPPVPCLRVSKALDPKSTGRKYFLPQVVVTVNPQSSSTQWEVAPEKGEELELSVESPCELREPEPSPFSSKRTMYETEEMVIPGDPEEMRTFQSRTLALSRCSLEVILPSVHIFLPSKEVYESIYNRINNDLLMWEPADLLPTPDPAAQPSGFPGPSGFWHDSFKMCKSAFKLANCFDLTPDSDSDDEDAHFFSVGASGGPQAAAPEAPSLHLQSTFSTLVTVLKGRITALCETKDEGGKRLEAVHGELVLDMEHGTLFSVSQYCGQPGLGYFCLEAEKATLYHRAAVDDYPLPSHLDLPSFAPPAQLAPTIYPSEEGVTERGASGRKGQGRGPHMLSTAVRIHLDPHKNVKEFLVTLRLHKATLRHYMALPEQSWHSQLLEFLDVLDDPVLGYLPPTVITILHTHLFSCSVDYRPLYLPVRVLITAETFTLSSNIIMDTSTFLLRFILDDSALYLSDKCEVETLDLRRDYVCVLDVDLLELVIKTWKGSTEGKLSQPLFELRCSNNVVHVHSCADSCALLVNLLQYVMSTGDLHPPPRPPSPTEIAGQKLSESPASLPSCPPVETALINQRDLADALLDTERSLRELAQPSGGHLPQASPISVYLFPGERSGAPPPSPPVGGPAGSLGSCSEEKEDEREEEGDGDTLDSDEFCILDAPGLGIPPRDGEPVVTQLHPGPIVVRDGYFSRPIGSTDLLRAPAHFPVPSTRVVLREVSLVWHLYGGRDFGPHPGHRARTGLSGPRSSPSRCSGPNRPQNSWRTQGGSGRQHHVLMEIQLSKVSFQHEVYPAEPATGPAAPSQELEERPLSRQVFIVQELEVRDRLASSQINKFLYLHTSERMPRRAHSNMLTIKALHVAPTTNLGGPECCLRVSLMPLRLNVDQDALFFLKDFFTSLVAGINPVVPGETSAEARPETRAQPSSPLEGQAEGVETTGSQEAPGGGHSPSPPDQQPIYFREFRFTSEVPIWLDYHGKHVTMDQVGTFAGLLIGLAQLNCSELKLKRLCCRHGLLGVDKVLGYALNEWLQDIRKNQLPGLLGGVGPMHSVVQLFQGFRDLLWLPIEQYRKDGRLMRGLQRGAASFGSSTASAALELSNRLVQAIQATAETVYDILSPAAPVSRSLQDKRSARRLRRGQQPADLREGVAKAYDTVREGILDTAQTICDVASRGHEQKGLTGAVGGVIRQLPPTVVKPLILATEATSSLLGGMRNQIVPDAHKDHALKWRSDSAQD

Key:
[1] = target: human ATG2A-TwinStrepII (human) (UniProt Q2TAZ0); test: liposome flotation; 100 nM ATG2A-TwinStrepII with His-WIPI4 or His-WIPI1 and 25 µM LUVs (100 nm; 5% PI3P, 49% DOPC, 25% DOPE, 20% DOPS, 1% DiD); 20 mM HEPES pH 7.5, 150 mM NaCl, 1 mM TCEP; Nycodenz gradient; top, middle and bottom fractions by western blotting (anti-StrepII, anti-His); both purified
[2] = target: human ATG2A-TwinStrepII (human) (UniProt Q2TAZ0); test: pull-down; ATG2A-TwinStrepII loaded on Strep-Tactin Superflow beads, mixed with free 10xHis-WIPI4 or 6xHis-WIPI1; 20 mM HEPES pH 7.5, 150 mM NaCl, 0.5 mM TCEP, 20% glycerol, 0.1% Triton X-100; ~5 min incubation, three washes, elution with 5 mM desthiobiotin; SDS-PAGE with CBB staining; both …

B1: 10xHis-human WIPI4 (protein, UniProt Q9Y484 1-360)
chain: MTQQPLRGVTSLRFNQDQSCFCCAMETGVRIYNVEPLMEKGHLDHEQVGSMGLVEMLHRSNLLALVGGGSSPKFSEISVLIWDDAREGKDSKEKLVLEFTFTKPVLSVRMRHDKIVIVLKNRIYVYSFPDNPRKLFEFDTRDNPKGLCDLCPSLEKQLLVFPGHKCGSLQLVDLASTKPGTSSAPFTINAHQSDIACVSLNQPGTVVASASQKGTLIRLFDTQSKEKLVELRRGTDPATLYCINFSHDSSFLCASSDKGTVHIFALKDTRLNRRSALARVGKVGPMIGQYVDSQWSLASFTVPAESACICAFGRNTSKNVNSVIAICVDGTFHKYVFTPDGNCNREAFDVYLDICDDDDF
[1]
  binding: binds
[2]
  binding: binds
